Experimental findings from patent US4978744A (Arizona Board of Regents, priority 1989, dated 1990) are described below.

This data set in a line: general procedure: solution-phase peptide synthesis; pivaloyl anhydride coupling for the N-methyl amino acid (Dil).

In turn, dolastatin 10 came in with a step yield of 74%.
